No constants are given. Whether binding was seen depends on the method and setting. In cells and extracts the contact can be indirect. A result given as binding can be weak or reduced; the word gives no strength. Where a sequence is shown, tags or fusion partners need not be part of it.
Biological target: T1, Hsp22-3xFLAG (Drosophila) (UniProt P02515)
T1 sequence: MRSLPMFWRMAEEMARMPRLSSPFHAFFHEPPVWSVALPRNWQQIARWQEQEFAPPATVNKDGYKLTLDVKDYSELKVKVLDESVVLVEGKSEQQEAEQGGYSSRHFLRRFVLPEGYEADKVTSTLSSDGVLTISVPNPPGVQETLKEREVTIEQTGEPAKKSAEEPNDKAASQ
Assay: co-IP; S2 cells expressing Hsp22-3xFLAG (bait) and a 5xMyc-tagged prey from one pAc5-STABLE-neo plasmid (T2A); M2 anti-FLAG agarose beads; Western blot with anti-FLAG and anti-Myc

Protein sequences, listed by entry. Tags and fused reporters are not part of them. Lines headed by an entry give the natural chain unless they say otherwise; changes in a name come on top.
UniProt Q9VIE8: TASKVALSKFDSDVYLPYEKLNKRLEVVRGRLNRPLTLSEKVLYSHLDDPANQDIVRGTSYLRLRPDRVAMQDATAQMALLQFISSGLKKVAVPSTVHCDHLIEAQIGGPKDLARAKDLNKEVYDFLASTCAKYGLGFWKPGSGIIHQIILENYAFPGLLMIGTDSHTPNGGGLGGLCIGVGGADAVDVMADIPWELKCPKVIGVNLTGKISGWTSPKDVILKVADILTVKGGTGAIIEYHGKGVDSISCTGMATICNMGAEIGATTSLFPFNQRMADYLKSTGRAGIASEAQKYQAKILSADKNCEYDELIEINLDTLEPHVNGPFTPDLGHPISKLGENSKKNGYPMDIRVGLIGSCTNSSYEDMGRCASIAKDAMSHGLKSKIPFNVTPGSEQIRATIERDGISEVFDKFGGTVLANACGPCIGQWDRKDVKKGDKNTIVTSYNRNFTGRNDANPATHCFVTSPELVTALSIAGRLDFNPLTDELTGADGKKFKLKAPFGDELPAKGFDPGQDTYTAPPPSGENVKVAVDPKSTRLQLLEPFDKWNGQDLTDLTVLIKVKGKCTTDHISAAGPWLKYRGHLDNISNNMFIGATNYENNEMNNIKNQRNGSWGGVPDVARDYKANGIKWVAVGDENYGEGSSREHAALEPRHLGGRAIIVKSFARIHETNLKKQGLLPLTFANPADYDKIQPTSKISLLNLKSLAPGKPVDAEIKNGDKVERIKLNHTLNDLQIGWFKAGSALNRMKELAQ

- binding: binds
Substance: mAcon1-5xMyc (from UniProt Q9VIE8)

Source: article PMC12218971
